Results are given in words; binding and its absence hold for the method and conditions named. In cells and extracts the contact can be indirect. Some entries that bind do so weakly or less than the wild type. For part of these data: Sequences can lack the tags named with a protein.
Legend:
Flag-PFKP (human) = target: T1, Flag-PFKP (human) (UniProt Q01813); assay: co-IP; Flag-PFKP and HA-AKT1/2 expressed in 293T cells
T1 sequence: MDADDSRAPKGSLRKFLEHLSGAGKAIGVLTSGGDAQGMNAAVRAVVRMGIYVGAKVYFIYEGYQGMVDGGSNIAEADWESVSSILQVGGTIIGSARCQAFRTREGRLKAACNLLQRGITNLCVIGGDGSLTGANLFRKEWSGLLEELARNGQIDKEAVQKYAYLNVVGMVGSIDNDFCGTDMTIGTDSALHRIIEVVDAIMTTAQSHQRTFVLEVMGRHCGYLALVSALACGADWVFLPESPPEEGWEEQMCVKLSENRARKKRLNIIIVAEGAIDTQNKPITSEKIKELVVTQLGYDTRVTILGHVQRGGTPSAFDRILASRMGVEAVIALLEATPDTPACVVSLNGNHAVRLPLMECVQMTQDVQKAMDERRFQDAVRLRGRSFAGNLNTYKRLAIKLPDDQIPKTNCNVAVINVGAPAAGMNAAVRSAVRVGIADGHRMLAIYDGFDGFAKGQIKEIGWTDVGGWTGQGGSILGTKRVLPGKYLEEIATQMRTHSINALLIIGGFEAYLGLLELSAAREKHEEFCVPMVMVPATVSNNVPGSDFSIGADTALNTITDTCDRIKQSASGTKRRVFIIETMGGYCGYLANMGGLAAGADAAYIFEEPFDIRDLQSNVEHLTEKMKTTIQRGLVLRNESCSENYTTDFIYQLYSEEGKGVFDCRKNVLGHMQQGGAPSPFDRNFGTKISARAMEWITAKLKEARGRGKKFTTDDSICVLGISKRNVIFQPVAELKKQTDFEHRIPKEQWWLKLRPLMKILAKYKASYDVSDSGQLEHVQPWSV

Protein sequences, listed by entry. Tags and fused reporters are not part of them.
UniProt P31749: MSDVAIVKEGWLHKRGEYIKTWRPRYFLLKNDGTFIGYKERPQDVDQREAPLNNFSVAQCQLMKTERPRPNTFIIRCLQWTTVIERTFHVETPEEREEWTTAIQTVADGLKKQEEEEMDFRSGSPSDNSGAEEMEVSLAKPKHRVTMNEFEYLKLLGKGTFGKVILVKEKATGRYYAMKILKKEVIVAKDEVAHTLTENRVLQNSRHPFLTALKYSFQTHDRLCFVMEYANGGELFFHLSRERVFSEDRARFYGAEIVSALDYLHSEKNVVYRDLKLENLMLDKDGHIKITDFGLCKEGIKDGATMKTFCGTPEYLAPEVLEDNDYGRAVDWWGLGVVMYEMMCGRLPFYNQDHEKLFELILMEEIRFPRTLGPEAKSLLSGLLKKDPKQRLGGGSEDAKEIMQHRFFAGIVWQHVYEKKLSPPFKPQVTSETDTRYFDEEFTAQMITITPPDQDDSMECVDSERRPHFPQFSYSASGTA
UniProt P31751: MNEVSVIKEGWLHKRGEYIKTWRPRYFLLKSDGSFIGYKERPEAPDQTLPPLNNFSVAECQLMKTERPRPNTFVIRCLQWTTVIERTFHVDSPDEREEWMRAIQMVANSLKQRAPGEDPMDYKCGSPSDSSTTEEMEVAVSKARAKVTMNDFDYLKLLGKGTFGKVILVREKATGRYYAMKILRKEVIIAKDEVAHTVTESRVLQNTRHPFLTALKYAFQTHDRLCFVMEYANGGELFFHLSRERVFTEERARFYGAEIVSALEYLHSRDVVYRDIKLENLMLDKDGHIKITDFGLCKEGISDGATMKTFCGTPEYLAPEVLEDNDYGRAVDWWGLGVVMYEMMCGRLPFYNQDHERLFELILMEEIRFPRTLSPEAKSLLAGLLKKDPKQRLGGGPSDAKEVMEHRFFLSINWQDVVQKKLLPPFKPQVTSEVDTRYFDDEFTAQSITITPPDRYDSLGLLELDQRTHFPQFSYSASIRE
UniProt P19474: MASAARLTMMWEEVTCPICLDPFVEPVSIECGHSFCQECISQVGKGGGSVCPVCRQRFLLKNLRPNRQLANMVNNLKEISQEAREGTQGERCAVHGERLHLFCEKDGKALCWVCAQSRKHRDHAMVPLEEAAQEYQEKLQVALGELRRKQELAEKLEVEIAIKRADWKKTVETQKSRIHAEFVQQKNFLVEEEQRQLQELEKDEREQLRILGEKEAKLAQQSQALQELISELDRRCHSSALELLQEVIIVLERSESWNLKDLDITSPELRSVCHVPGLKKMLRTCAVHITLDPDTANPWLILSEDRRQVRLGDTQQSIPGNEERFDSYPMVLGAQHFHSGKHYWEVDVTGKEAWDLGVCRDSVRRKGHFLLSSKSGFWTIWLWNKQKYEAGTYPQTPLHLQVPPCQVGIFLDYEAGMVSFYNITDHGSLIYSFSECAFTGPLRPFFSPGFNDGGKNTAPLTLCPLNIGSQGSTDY

SFB-PFKP (human) = target: T2, SFB-PFKP (human) (UniProt Q01813); assay: pull-down; 293T cells co-transfected with SFB-PFKP and WT HA-TRIM21 or its truncation mutants for 24 h; pull-down of SFB-PFKP
T2 sequence: T1 sequence

Row | binding (Flag-PFKP (human)) | binding (SFB-PFKP (human)) | Substance
1 | binds |  | HA-AKT1 (from UniProt P31749 1-480)
2 | binds |  | HA-AKT2 (from UniProt P31751 1-481)
3 |  | binds | WT HA-TRIM21 (from UniProt P19474 1-475)
